Binding data for five molecules are collected here from US20250270324A1.

By UniProt entry, the sequences of proteins in these tests, tags left out. Where a name states a change or a piece, a line headed by the entry shows the natural chain unless it says otherwise. Residues count along the entry.
UniProt Q9NZQ7: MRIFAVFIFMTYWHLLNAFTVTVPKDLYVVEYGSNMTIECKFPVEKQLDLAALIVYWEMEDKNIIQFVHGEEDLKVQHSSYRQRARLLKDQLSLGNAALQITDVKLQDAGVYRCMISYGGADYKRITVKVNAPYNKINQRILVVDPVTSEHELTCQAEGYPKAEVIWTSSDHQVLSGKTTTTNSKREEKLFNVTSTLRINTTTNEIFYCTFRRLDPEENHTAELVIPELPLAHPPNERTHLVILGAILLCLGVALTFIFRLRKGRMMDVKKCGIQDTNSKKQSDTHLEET
human PD-L1-Fc (R&D Biosystems, 156-B7): residues 19-239 of Q9NZQ7

Experiment [1] deals with Cyno PD-L1-rCD4-His (cynomolgus). The experiment in a line: SPR, IgG1 from culture supernatant. (Surface plasmon resonance follows binding to a sensor surface in real time, without labels.)
The target in experiment [2] is human PD-L1-rCD4-His (human). Put plainly: SPR, IgG1 from culture supernatant.
The target in experiment [3] is PD-L1-His (Acrobiosystems, PD1-H83F3) (human) (UniProt Q9NZQ7). Put plainly: SPR, antigen on CM5 chip, mAb^2 at 1 nM.
In experiment [4] the target is human PD-L1-Fc (R&D Biosystems, 156-B7) (human) (UniProt Q9NZQ7). The experiment in a line: SPR, antigen on CM5 chip, mAb^2 at 1 nM.

Where a chain is given by its changes, count along the chain named. These are yes or no findings as the source states them, for the method shown. Some binding calls cover weakened binding; strength is not graded here.

B1: G1/929_01_A05 (antibody, human IgG1, V domains shown)
VH: EVQLVQSGAEVKRPGASVKVSCKASGYTFTSYGISWVRQAPGQGLEWMGWISAYSGGTNYAQKLQGRVTMTTDTSTSTAYMELRSLRSDDTAVYYCARDLFPTIFGVSYYYYWGQGTLVTVSS
VL: DIQMTQSPSTLSASVGDRVTITCRASQSISGRLAWYQQKPGKAPNLLIYEASNLESGVPSRFSGSGSGTEFTLTINSLQPDDFATYYCQQANTFPRVSFGGGTKVEIKR
As to B1, the binding entry in experiment [1] and in experiment [2] was “binds” throughout.

B2: G1/929_01_A06 (antibody, human IgG1, V domains shown)
VH: B1 VH with G57N, T58A
VL: B1 VL
For B2, the binding result in experiment [1] and in experiment [2] was “binds” throughout.

B3: FS22-172-003AA/E12v2 (bispecific antibody, human IgG1, kappa, L234A L235A, V domains shown)
VH: B1 VH with T28P
VL: DIQMTQSPSTLSASVRDRVIITCRASQSIGNRLAWYQHKPGKAPKLLIYEASTSETGVPSRFSGSGSGTDFTLTISSLQPEDFATYYCQQSYSTPYTFGQGTKLEIKR
As for B3, the binding result in experiment [3] and in experiment [4] was “binds” in each case.

B4: G1/929_01_A12 (antibody, human IgG1, V domains shown)
VH: B1 VH with G57N, T58A
VL: DIQMTQSPSTLSASVGDRVTITCRASQSISGRLAWYQQKPGKAPNLLIYEASNLESGVPSRFSGSGSGTEFTLTISSLQPEDFATYYCQQSYSWPRTFGQGTKVEIKR
On to B4, for which the binding result in experiment [1] and in experiment [2] was “binds” throughout.

B5: FS22-172-003AA/G12v2 (bispecific antibody, human IgG1, kappa, L234A L235A, V domains shown)
VH: B1 VH
VL: B4 VL
With B5, the binding result in experiment [3] and in experiment [4] was “binds” throughout.
